This note sets out measurements from PubChem BioAssay AID2685 (National Center for Advancing Translational Sciences (NCATS), 2010).

The nature of this experiment: qHTS Assay for Lipid Storage Modulators in Drosophila S3 Cells.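 As to cell number change: cells counted by Cell Tracker Red CMTPX staining in the red channel.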 To be noted: BODIPY lipid droplet fluorescence, 18-24 h; for cell number change: measured here: cell count max response, cells fed with added oleic acid. In short, it runs like this: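 Laser-scanning cytometry quantifies lipid droplet accumulation (500–530 nm total intensity; droplet/cell object ratio) in oleic acid-fed (400 uM added) Drosophila S3 cells treated with a concentration series. 20 uM Triacsin C defined 100% inhibition.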
(In qHTS, concentration-response curves come from the screen itself.)

[1] abbreviates: measured here: lipid fluorescence (Fed channel) AC50, cells fed with added oleic acid.
The mark [2] stands for this setting: measured here: cell number channel AC50, cells fed with added oleic acid.

The list shows a part of the results. Shown are side measurements of this screen, not its main read-out; they come without a call. The list favours compounds with an active or inconclusive main result. Potencies come from curve fits of mixed quality, noted in brackets.

For orientation: AC50 means the concentration giving half of the maximal activity seen. Read a low AC50 as activity at low concentration. Turning to `Cc1ccccc1NC(=O)C1CCC(=O)N1` (centres undefined), the cell number change is 4.99%. The AC50 under setting [1] was 0.651 µM [falling, partial curve, poor fit].
In the case of `Cc1c(OCC(=O)NC(Cc2ccc(Cl)cc2)C(=O)O)ccc2c1oc(=O)c1ccccc12` (centres undefined), the AC50 under setting [1] was 6.51 µM [falling, single point].
Turning to `N#Cc1nc(COc2ccccc2)oc1N1CCCC1`, the cell number change is -21.4%. The AC50 under setting [1] is 23.1 µM [rising, single point].
Take `COc1ccc2c(c1)CCCC21SC(NC(C)=O)=NN1C(C)=O` (centres undefined): the cell number change was -25%. Moreover, the AC50 under setting [2] is 4.11 µM [falling, full curve, poor fit].
In the case of `COC(=O)CN(c1ccc(OC)cc1)S(=O)(=O)c1ccc(OC)c(OC)c1`, the AC50 under setting [2] is 3.66 µM [rising, single point].
Regarding `CSCCC(NS(=O)(=O)c1ccccc1F)C(=O)NCCCn1nc(C)cc1C` (centres undefined), the cell number change is 1.33%. Moreover, the AC50 under setting [1] was 0.0058 µM [falling, full curve, poor fit].
Take `CCC(=O)N/N=C(\C)CC(=O)Nc1ccc2c(c1)OCCO2`: the cell number change was found to be 9.18%. Also, the AC50 under setting [1] was 0.58 µM [rising, single point].
As for `Cc1ccc(S(=O)(=O)CC(O)COc2ccc(F)cc2Cl)cc1` (centres undefined), the cell number change is 1.47%. The AC50 under setting [2] is 0.731 µM [falling, single point].
Consider `C/C(N)=C(/C#N)C(=O)CSc1cc(C)c2cc(C)cc(C)c2n1`, for which the cell number change is -4.04%. Under setting [2], the AC50 was 0.411 µM [falling, partial curve, poor fit]. Besides, the AC50 under setting [1] was 0.411 µM [falling, full curve].
As to `CSc1nnc(NC(=O)C2CCCCC2)s1`, the cell number change amounted to 11.2%. Also, the AC50 under setting [1] is 0.0231 µM [falling, full curve, poor fit].
With `CCCN(CC(=O)Nc1ccccc1C)C(=O)/C=C/c1ccc(OCC)c(OC)c1`, the cell number change was -2.2%. Further, the AC50 under setting [1] was 0.146 µM [rising, full curve, poor fit].
`O=C1CSc2ccc(C(=O)N3CCN(c4ccccn4)CC3)cc2N1`: the cell number change worked out at 4.83%. For the same compound, the AC50 under setting [2] is 1.3 µM [rising, partial curve]. The AC50 under setting [1] is 2.31 µM [rising, partial curve, poor fit].
`CC(=O)C1=C(c2ccccc2)NC(=O)NC1c1ccc(O)c(Cl)c1` (centres undefined): the cell number change is -3.16%. Under setting [1], the AC50 is 3.26 µM [rising, full curve].
In the case of `C/C(=N\NC(=O)CSc1nc2ccccc2s1)c1ccco1`, the AC50 under setting [2] was 2.31 µM [rising, single point].
Take `Cc1occc1C(=O)Nc1c(Cl)cccc1Cl`: the cell number change came to 17.8%. Further, under setting [2], the AC50 was 0.731 µM [rising, single point].
For the compound `COc1ccc(CCC(=O)NC(C)C)cc1`, the cell number change amounted to 61%. In addition, the AC50 under setting [2] is 29.1 µM [rising, single point]. Further, the AC50 under setting [1] was 29.1 µM [rising, single point].
Consider `Cc1onc(-c2ccccc2)c1C(=O)OCC(=O)Nc1ccc(OC(F)(F)F)cc1`, for which the cell number change is -6.2%. Further, the AC50 under setting [1] was 0.259 µM [falling, full curve, poor fit].
Regarding `Cc1ccc(NC(=O)Nc2nnc(Cc3ccc([N+](=O)[O-])cc3)s2)cc1`, the cell number change is -4.34%. Also, the AC50 under setting [1] was 5.17 µM [rising, full curve, poor fit].
Take `CCCOc1cccc(C2/C(=C(/O)c3ccc4c(c3)CC(C)O4)C(=O)C(=O)N2CCN2CCOCC2)c1` (centres undefined): the cell number change amounted to 23.9%. Moreover, the AC50 under setting [1] is 0.731 µM [rising, full curve].
In the case of `COc1ccc(CC(=O)O/N=C(\N)c2ccc(OC)cc2)cc1`, the cell number change was found to be 25.9%. For the same compound, the AC50 under setting [1] was 0.651 µM [rising, single point].
`Cn1c2ccccc2c(=O)c2c(=O)n(Cc3ccco3)c(-c3ccc(C(C)(C)C)cc3)nc21`: the cell number change was -8.56%. Besides, the AC50 under setting [2] is 6.51 µM [falling, single point]. For the same compound, the AC50 under setting [1] is 25.9 µM [falling, partial curve, poor fit].
Regarding `CN(CC(=O)NCc1ccccc1Cl)CC(=O)Nc1ccccc1Br`, the cell number change was found to be 16.7%. Moreover, the AC50 under setting [1] was 0.146 µM [rising, full curve].
Turning to `O=C(NCCN=C1NS(=O)(=O)c2ccccc21)c1ccc(S(=O)(=O)N2CCOCC2)cc1`, the cell number change came out at 6.56%. Further, the AC50 under setting [1] is 3.26 µM [falling, partial curve].
As to `CCOC(=O)c1cccc(NC(=O)C2CCCN(c3nnc(N4CCCC4=O)s3)C2)c1` (centres undefined), the cell number change came to 10.7%.
`COc1ccc(NC(=O)CSc2nnc(-c3ccccn3)n2N)cc1`: the cell number change is 67.8%. Besides, the AC50 under setting [2] is 29.1 µM [rising, single point]. In addition, the concentration at half-maximal activity (AC50) under setting [1] is 0.146 µM [falling, full curve, poor fit].
With `CC(C)C(C)(C#N)NC(=O)CSc1nncn1-c1ccccc1` (centres undefined), the cell number change turned out to be 93.7%. Further, the concentration at half-maximal activity (AC50) under setting [2] was 16.4 µM [rising, single point].
`CCOc1ccc(CN2CCN(c3ncnc4scc(-c5ccccc5)c34)CC2)cc1`: the cell number change came out at 41.5%. For the same compound, the AC50 under setting [2] was 8.2 µM [rising, partial curve, poor fit].
Turning to `COc1ccc(-c2cc(C(=O)N(C)CC(=O)Nc3ccccc3Br)c3ccccc3n2)cc1OC`, the cell number change is -2.64%. The AC50 under setting [1] was 18.4 µM [rising, single point].
Take `Fc1cccc(CNC2CCN(CCc3ccccc3)CC2)c1`: the cell number change was -0.379%. Also, the AC50 under setting [1] is 0.103 µM [rising, full curve, poor fit].
As to `O=C1c2ccc(Oc3cccc([N+](=O)[O-])c3)cc2C(=O)N1c1ccccn1`, the cell number change was 2.27%. For the same compound, the AC50 under setting [2] is 0.092 µM [falling, full curve, poor fit]. Further, the half-maximal activity concentration (AC50) under setting [1] is 6.51 µM [falling, single point].
Take `CC(=O)Nc1ccc(NC(=O)CSc2ccc(C)cc2)cc1`: the cell number change is -13.3%.
On the same count and under the same terms, the same measure for `COc1cccc(N=C2CC(C)(C)CC(=O)/C2=C(/O)c2ccccc2)c1`: 2.65%.
On the same count and under the same terms, the result for `COCCn1nnnc1C(c1ccc(Cl)cc1)N1CCN(C(=O)c2ccco2)CC1` (centres undefined) reads 14.4%.
Regarding `CC(=O)c1cccc(NC(=O)C2CCN(C(=O)c3ccc([N+](=O)[O-])cc3)CC2)c1`, the cell number change was -23.4%. In addition, under setting [1], the AC50 was 6.51 µM [falling, single point].
For `Cc1ccc(C(=O)/C=C/Nc2ccc(S(=O)(=O)Nc3cc(C)nc(C)n3)cc2)cc1`, the cell number change is 17.7%. Moreover, under setting [1], the AC50 is 1.46 µM [rising, partial curve].
As for `O=C(Nc1cccc(S(=O)(=O)N2CCCCC2)c1)C1CCN(C(=O)c2ccc(Cl)cc2)CC1`, the cell number change is -8.4%. In addition, the AC50 under setting [2] was 1.3 µM [rising, single point].
As for `O=C1/C(=C/c2ccc(Br)cc2)Oc2cc(O)ccc21`, the cell number change was -0.118%.
`CN(CC/C=C1/c2ccccc2CSc2ccccc21)CCCO`: the cell number change was -8.68%. For the same compound, the AC50 under setting [1] was 29.1 µM [rising, partial curve].
Turning to `CCN(CC)C(=O)CCS(=O)(=O)c1cccc2nonc12`, the cell number change was 0.988%. For the same compound, the AC50 under setting [1] is 18.4 µM [falling, partial curve].
`Cc1c(C(=O)NCc2ccccc2)oc2ccc(S(=O)(=O)N3CCCC3)cc12`: the cell number change was -33.1%. For the same compound, the AC50 under setting [2] was 8.2 µM [falling, partial curve].
Turning to `O=C(COC(=O)c1ccccc1NC(=O)c1ccccc1)c1ccc([N+](=O)[O-])cc1`, the cell number change was -2.84%. In addition, the AC50 under setting [1] was 29.1 µM [falling, partial curve].
For `Brc1c(OCCOCCn2cncn2)ccc2ccccc12`, the cell number change stood at 314%. The AC50 under setting [2] is 18.4 µM [rising, partial curve]. The AC50 under setting [1] is 16.4 µM [rising, partial curve].
On to `O=C(c1ccco1)N1CCN(c2ccc(N3CCCCC3)nn2)CC1`, for which the cell number change was -5.43%. Moreover, under setting [2], the AC50 was 3.66 µM [falling, single point]. Further, the AC50 under setting [1] was 11.6 µM [falling, partial curve, poor fit].
Take `CC(C)(C)C1CCC2(CC1)NC(CO)(CO)CO2` (centres undefined): the cell number change was -15.4%. For the same compound, under setting [1], the AC50 was 1.46 µM [falling, partial curve].
With `COC(=O)C1C2C=CC3(CN(C(C)C)C(=O)C13)O2` (centres undefined), the cell number change worked out at 37.9%. For the same compound, the AC50 under setting [2] is 0.92 µM [rising, full curve, poor fit]. Further, under setting [1], the AC50 is 29.1 µM [rising, single point].
Regarding `CC(CN1CCCCC1)OC(=O)c1ccccc1F` (centres undefined), the cell number change came out at 20.7%. The AC50 under setting [1] was 29.1 µM [falling, single point].
For `COc1ccc(S(=O)(=O)NNC(N)=S)cc1`, the cell number change was found to be 21.2%. For the same compound, the AC50 under setting [1] was 23.1 µM [falling, partial curve, poor fit].
On to `Cc1ccc(NC(=O)C(C)c2ccc(-c3ccccc3)c(F)c2)c(C)c1` (centres undefined), for which the cell number change stood at 2.17%. In addition, under setting [1], the AC50 was 0.0326 µM [rising, full curve, poor fit].
Consider `Cc1ccc(N2C(=O)Nc3ccccc3C2(O)C(=O)N2CCN(c3ccccn3)CC2)cc1C` (centres undefined), for which the cell number change was 34.3%. In addition, the AC50 under setting [2] was 14.6 µM [rising, single point]. In addition, the AC50 under setting [1] was 14.6 µM [rising, partial curve, poor fit].
With `Cc1occc1C(=O)N(C)Cc1nc(-c2ccccc2)no1`, the cell number change stood at 16.1%. Also, the AC50 under setting [1] is 2.91 µM [rising, single point].
As to `Cn1c(C(=O)NCCCN2CCCC2=O)cc2c(=O)n(C)c3ccccc3c21`, the cell number change is 58.2%. The AC50 under setting [2] is 5.8 µM [rising, partial curve]. For the same compound, the AC50 under setting [1] is 5.17 µM [rising, full curve].
On to `COc1ccc(-c2nc(CS(=O)CC(=O)NC3CCCc4ccccc43)c(C)o2)cc1OC` (centres undefined), for which the cell number change came to 58.6%. Further, under setting [2], the AC50 was 11.6 µM [rising, partial curve]. In addition, the AC50 under setting [1] is 14.6 µM [rising, partial curve].
As for `COc1ccc(NC(=O)CCNC(=O)Cn2cnc3ccccc3c2=O)cc1OC`, the cell number change is -8.12%.
As for `O=C(NCCS(=O)(=O)N1CCN(c2ccccc2F)CC1)c1ccc(Br)cc1`, the cell number change was found to be 36.3%. In addition, under setting [2], the AC50 is 29.1 µM [rising, single point].
In the case of `CCCCn1nc(C(=O)NCC2COc3ccccc3O2)c2ccccc2c1=O` (centres undefined), the cell number change was -29.4%. Moreover, the AC50 under setting [1] is 23.1 µM [falling, partial curve].
Consider `O=c1cc2c(nn1Cc1cccc(Cl)c1)-c1ccccc1CC2`, for which the cell number change was -9.14%. Also, the AC50 under setting [1] is 6.51 µM [rising, single point].
With `CCn1c2ccccc2c2cc(CN3CCN(S(=O)(=O)Cc4ccccc4)CC3)ccc21`, the cell number change came to 35.4%. For the same compound, under setting [2], the AC50 was 18.4 µM [rising, single point].
In the case of `Cc1cc(C)n(C2CC(=O)N(c3cc(Cl)cc(Cl)c3)C2=O)n1` (centres undefined), the cell number change is 6.52%. Also, the AC50 under setting [1] was 1.84 µM [rising, full curve, poor fit].
